Source: publication PMC12375108
No constants are given. Whether binding was seen depends on the method and setting. Binding seen in cells or lysates may run through a third protein. Some binding calls cover weakened binding; strength is not graded here. Sequences can lack the tags named with a protein.

Sequences of proteins named here, by UniProt entry; tags and fusion partners are left off. Residues count along the entry.
UniProt P26443, residues 54-558: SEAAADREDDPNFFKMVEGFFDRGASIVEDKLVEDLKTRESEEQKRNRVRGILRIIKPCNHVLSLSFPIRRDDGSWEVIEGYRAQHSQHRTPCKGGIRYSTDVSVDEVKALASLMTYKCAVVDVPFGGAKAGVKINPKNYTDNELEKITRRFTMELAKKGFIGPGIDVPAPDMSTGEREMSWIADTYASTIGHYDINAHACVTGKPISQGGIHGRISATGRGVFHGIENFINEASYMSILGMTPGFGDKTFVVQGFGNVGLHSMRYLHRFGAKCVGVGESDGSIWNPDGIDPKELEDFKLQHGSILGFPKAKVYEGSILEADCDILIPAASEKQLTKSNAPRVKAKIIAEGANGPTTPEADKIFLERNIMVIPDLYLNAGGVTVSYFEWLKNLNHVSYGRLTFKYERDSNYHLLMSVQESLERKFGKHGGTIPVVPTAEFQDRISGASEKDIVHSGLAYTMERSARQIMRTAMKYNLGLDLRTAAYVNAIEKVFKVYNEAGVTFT

Target: T1, GST-tagged E. coli hinT H101N (E. coli) (UniProt P0ACE7)
T1 sequence: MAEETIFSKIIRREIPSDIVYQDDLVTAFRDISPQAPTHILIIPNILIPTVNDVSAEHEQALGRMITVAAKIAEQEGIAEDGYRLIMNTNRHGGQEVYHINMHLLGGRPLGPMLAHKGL
Assay: pull-down; 4 μg GST-hinT H101N on glutathione beads, 9 mg lysate of YUMM3.3ΔSelO cells stably expressing SelO, SelO D338A or SelO V334A, overnight at 4 °C; immunoblot with α-AMP, α-Glud1, α-pdhB, α-acat1, α-OGDH; only the target purified

binding: binds
Substance: AMPylated Glud1 (glutamate dehydrogenase), endogenous in YUMM3.3 cells expressing SelO (from UniProt P26443 54-558) (enzyme)
